According to doi:10.1101/2021.08.18.456703:
The exact form of at least one protein or probe is not confirmed. At least one result comes from cells or an extract, where the contact may be indirect. For some assays here: Where a protein sequence is shown, tags need not be part of it.

Chains of the proteins cited; added tags and fusions are not shown. Lines headed by an entry give the natural chain unless they say otherwise; changes in a name come on top.
UniProt P67809: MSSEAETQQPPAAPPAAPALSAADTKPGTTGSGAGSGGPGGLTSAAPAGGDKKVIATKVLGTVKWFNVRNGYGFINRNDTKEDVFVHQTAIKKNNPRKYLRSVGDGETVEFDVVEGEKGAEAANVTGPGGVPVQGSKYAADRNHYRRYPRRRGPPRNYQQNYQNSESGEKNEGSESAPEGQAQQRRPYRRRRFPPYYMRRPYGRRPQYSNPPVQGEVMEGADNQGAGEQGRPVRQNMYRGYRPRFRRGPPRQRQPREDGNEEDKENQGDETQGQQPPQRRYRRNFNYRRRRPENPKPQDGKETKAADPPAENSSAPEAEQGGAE
UniProt P22626: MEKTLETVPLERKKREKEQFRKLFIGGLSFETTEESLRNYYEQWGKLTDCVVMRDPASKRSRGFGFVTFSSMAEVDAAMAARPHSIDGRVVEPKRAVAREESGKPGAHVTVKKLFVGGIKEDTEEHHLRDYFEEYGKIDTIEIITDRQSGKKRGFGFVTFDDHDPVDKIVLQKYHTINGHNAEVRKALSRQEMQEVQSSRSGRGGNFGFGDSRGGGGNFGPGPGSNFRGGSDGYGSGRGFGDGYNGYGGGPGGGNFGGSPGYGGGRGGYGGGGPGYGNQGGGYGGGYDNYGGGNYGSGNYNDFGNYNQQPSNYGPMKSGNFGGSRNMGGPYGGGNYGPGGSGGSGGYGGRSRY

What was measured:
Experiment in all cases: pull-down + mass spectrometry
Conditions in all cases: cell lysate, other proteins present; protein in an extract
[1] = molecular target: YBX1 (YBOX1, Y-box protein 1) (UniProt P67809)
[2] = molecular target: HNRNPA2B1 (printed HNRNA2B1) (UniProt P22626)
EEF1A1 = molecular target: T1, EEF1A1 (UniProt P68104)
T1 sequence (looked up, limits assumed): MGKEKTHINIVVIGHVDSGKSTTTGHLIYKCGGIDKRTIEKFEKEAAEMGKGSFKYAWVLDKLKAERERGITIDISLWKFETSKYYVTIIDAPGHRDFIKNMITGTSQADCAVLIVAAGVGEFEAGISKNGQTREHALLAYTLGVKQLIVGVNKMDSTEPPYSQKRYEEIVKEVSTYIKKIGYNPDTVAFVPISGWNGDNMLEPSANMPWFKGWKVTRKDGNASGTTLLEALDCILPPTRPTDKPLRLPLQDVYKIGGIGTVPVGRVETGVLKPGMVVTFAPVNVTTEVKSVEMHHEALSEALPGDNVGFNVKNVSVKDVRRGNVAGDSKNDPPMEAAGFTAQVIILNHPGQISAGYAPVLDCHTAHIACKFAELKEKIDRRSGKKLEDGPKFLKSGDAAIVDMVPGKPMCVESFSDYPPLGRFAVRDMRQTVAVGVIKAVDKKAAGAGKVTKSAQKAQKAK

HNRNPM = molecular target: T2, HNRNPM (UniProt P52272)
T2 sequence (looked up, limits assumed): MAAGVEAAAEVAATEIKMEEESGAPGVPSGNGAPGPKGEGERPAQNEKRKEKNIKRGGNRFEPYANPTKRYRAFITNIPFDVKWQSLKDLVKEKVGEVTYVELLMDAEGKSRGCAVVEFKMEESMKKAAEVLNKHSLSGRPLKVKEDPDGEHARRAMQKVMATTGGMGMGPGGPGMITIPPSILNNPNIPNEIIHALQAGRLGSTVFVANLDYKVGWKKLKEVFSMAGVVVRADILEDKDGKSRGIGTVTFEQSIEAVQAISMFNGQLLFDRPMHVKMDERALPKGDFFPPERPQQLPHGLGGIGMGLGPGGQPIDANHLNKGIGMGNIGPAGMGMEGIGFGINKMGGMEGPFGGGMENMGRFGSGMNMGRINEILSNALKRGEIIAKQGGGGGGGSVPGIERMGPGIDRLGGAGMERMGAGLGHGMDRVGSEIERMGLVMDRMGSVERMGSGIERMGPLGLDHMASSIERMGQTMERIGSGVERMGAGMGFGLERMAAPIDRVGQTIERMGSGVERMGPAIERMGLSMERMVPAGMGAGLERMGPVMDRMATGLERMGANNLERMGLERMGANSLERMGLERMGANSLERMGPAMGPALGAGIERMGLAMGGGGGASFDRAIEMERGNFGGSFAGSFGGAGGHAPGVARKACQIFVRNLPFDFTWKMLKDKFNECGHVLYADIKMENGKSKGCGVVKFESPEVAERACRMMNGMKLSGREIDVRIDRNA

SYNCRIP = molecular target: T3, SYNCRIP (UniProt O60506)
T3 sequence (looked up, limits assumed): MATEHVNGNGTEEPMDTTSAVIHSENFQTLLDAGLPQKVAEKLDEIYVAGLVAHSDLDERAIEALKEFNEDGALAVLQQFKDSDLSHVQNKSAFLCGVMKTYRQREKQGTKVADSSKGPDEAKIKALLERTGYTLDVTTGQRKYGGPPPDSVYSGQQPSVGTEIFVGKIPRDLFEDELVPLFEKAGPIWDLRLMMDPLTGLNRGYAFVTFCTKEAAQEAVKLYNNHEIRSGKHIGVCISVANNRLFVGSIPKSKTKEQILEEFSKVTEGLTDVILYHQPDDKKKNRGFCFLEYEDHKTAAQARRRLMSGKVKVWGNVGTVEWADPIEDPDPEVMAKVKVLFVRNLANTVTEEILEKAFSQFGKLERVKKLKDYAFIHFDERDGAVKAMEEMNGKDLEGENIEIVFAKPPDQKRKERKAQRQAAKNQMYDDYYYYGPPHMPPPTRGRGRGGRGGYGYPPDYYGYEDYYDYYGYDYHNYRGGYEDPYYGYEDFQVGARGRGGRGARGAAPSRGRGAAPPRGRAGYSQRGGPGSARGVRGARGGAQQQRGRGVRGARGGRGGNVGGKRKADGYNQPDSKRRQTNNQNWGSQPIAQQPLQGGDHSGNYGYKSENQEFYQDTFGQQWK

Measured: binding result

UCGUAGGUCAGGAAGCGGCG [M1 EXO-Code]
binds: all assays above
